Consider two substances from PMC5596555.

By UniProt entry, the sequences of proteins in these tests, tags left out.
UniProt Q9HCE7: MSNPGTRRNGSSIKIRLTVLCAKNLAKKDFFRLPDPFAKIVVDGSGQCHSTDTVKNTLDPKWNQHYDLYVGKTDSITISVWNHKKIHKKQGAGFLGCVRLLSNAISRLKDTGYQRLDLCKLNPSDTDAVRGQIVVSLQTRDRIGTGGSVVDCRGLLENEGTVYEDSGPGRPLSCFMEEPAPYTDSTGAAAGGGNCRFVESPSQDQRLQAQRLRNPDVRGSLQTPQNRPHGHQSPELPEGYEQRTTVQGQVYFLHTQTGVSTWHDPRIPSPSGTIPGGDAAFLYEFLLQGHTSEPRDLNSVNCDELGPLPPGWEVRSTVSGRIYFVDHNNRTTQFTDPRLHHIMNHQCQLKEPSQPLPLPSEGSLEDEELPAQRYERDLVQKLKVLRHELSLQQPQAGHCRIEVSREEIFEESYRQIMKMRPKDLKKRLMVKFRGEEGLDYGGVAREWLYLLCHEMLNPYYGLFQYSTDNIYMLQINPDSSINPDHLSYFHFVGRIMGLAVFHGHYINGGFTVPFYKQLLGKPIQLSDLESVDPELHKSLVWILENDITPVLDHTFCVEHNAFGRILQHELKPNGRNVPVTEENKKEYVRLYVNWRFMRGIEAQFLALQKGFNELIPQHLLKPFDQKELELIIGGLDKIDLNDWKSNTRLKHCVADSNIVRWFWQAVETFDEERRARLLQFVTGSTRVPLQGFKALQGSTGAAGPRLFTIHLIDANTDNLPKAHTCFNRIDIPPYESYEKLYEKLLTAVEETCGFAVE
UniProt Q15819: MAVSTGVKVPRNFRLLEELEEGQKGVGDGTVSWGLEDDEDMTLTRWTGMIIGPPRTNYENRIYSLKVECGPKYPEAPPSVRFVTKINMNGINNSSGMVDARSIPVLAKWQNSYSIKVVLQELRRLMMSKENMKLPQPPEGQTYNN
UniProt Q13404: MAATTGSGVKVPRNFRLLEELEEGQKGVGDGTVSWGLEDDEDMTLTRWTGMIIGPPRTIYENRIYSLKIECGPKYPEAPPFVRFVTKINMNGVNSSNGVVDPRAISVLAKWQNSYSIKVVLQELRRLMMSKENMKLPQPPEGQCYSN

Experiment [1] has as its target His6-tagged Smurf1 (UniProt Q9HCE7). Put plainly: pull-down; His6-Smurf1 purified from bacterial cells on nickel agarose beads; incubated with U2OS cell extract overexpressing HA-tagged Uevs overnight at 4 °C; washed five times with lysis buffer; anti-HA blot; only the target purified.
The target of experiment [2] is GST-Mms2 (UniProt Q15819). Put plainly: pull-down; purified GST-tagged Uevs on GST beads; incubated with purified His6-Smurf1 overnight at 4 °C; washed four times with lysis buffer; anti-GST and anti-His6 blots; both purified.
Experiment [3] has as its target GST-Uev1C (UniProt Q13404). The experiment is described as above.

These are yes or no findings as the source states them, for the method shown. For part of these data: Binding seen in cells or lysates may run through a third protein.

With “HA-tagged Mms2 (from UniProt Q15819 1-145)”, in experiment [1], the binding entry was “no binding”.
With “His6-tagged Smurf1 (from UniProt Q9HCE7 1-757) (enzyme)”, the binding entry in experiment [2] and in experiment [3] was “no binding” in each case.
